Results published in the supplement of paper PMC5662767.
Counter-ions that a name gives are not always drawn. Some of the results follow. Part of the spread comes from offsets between plates or batches.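 Smoothened with circularly permuted GFP in its cytoplasmic tail is carried by a clonal Drosophila S2 line; fluorescence appears when Hh-driven phosphorylation opens an inhibitory loop. Per-cell signal, read by flow cytometry, was scaled to Hh-stimulated untreated cells. Hits were consistent fluorescence-shifting groups of inhibitors sharing pathway targets, not single compounds.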

Test system: Drosophila S2 cl14 SmoIP sensor cells
Experiment: normalized SmoIP GFP fluorescence (untreated unstimulated = 0%, untreated Hh-stimulated = 100%); higher = more Smo activation sensor fluorescence
Settings: compound concentration: 15 uM, 24 h
[1] = stimulation: Hh conditioned medium (+Hh)
[2] = stimulation: mock conditioned medium (-Hh)

Compound	normalized SmoIP GFP fluorescence [1] [%]	normalized SmoIP GFP fluorescence [2] [%]
COc1ccccc1N1CCN(CCCNc2cc(=O)n(C)c(=O)n2C)CC1 [urapidil-hydrochloride]	129	-10.8
Cc1ccccc1-n1c(Cn2nc(-c3cccc(O)c3)c3c(N)ncnc32)nc2cccc(C)c2c1=O	119	-3.45
CCOC(=O)[C@H](CCc1ccccc1)N[C@@H](C)C(=O)N1Cc2cc(OC)c(OC)cc2C[C@H]1C(=O)O [moexipril-hydrochloride]	132	-12.7
CC(C)n1nc(-c2cc3cc(O)ccc3[nH]2)c2c(N)ncnc21	84.2	-1.56
COC(=O)C1=C(C)NC(C)=C(C(=O)OC2CCCN(Cc3ccccc3)C2)C1c1cccc([N+](=O)[O-])c1 (configuration not stated) [benidipine-hydrochloride]	146	45.7
CCN(Cc1ccncc1)C(=O)C(CO)c1ccccc1 (configuration not stated) [tropicamide]	107	-2.48
FC(F)(F)c1ccc(/C=C/c2nc(COc3ccc(CCCCn4ccnn4)cc3)co2)cc1 [Mubritinib-TAK-165]	112	95.4
CCc1cc2c(cc1N1CCC(N3CCOCC3)CC1)C(C)(C)c1[nH]c3cc(C#N)ccc3c1C2=O	161	8.81
CCOC(=O)[C@H](CCc1ccccc1)N[C@H]1CS[C@H](c2cccs2)CN(CC(=O)O)C1=O [temocapril-hcl]	158	-7.6
O=C(O)C(O)Cc1ccc(O)c(O)c1 (configuration not stated) [Sodium-Danshensu]	101	-7.65
CC(=O)Nc1nc(C)c(-c2ccc(Cl)c(S(=O)(=O)NCCO)c2)s1	225	14.5
CN1[C@@H]2CC[C@H]1C[C@@H](OC(=O)c1c[nH]c3ccccc13)C2 [Tropisetron-hydrochloride]	146	-9.22
Cc1nc(C(=O)NCC(=O)O)c(O)c2ccc(Oc3ccccc3)cc12	155	16.8
CC(C)N(CCC(=O)c1ccc2ccccc2c1)Cc1ccccc1	256	31.5
CC(C)n1c(/C=C/[C@@H](O)C[C@@H](O)CC(=O)O)c(-c2ccc(F)cc2)c2ccccc21 [Fluvastatin-Sodium(Lescol]	113	16.1
O=C(O)Cc1ccccc1Nc1c(Cl)cccc1Cl [Diclofenac-sodium]	121	-14.1
CCOC(=O)[C@H]1O[C@@H]1C(=O)N[C@@H](CC(C)C)C(=O)NCCC(C)C [Aloxistatin]	146	59.1
COc1ncc(-c2ccc3nccc(-c4ccnnc4)c3c2)cc1NS(=O)(=O)c1ccc(F)cc1F	29.9	16.7
CC(C)c1noc(N2CCC(COc3ccc(-c4ccc(S(C)(=O)=O)cc4)nc3)CC2)n1	202	48.7
CCOc1ccc(NC(C)=O)cc1 [phenacetin]	135	-13.7
Cc1cnc(-c2cc(N3CCN(C(=O)CCS(C)(=O)=O)CC3)ncc2Cl)c(C)c1	109	0.815
Cn1cc(-c2ccc3ncc(Cc4ccc5ncccc5c4)n3n2)cn1	130	-12.7
N#C/C(=C\c1ccc(O)c(O)c1)C(=O)NCc1ccccc1	214	84.6
Cc1cccc(Nc2ccccc2C(=O)O)c1C [mefenamic-acid]	117	-0.889
CN1CC2c3ccccc3Oc3ccc(Cl)cc3C2C1 (configuration not stated) [Asenapine]	162	53.9
CC(C)OC(=O)OCOP(=O)(CO[C@H](C)Cn1cnc2c(N)ncnc21)OCOC(=O)OC(C)C [Tenofovir-Disoproxil-Fumarate]	140	1.89

Compound	normalized SmoIP GFP fluorescence [1] [%]	normalized SmoIP GFP fluorescence [2] [%]
O=C1NC(=O)/C(=C/c2ccc(-c3ccc(F)cc3O)o2)S1	135	13.2
Cc1ccc(-c2c(-c3nn(C)c4ncnc(N5CC[C@H](N6CCCCC6)C5)c34)cnn2C)cc1	125	3.88
Cc1cc(F)c(Nc2ncnc3cc(OCc4ccccc4)ccc23)cc1O	112	2.35
Cc1cc(OCCCS(C)(=O)=O)cc(C)c1-c1cccc(COc2ccc3c(c2)OC[C@H]3CC(=O)O)c1	157	2.05
O=C(O)CC[C@H]1CC[C@@](c2cc(F)ccc2F)(S(=O)(=O)c2ccc(Cl)cc2)CC1	151	15.4
Cc1cccc(-c2[nH]c(C(C)(C)C)nc2-c2ccc3c(c2)OCO3)n1	136	-4.08
Cc1cncc(CN2CCC(=C3c4ccc(Cl)cc4CCc4cccnc43)CC2)c1 [rupatadine-fumarate]	152	37.2
COC1=C2C[C@@H](C)C[C@H](OC)[C@H](O)[C@@H](C)/C=C(\C)[C@H](OC(N)=O)[C@@H](OC)/C=C\C=C(/C)C(=O)NC(=CC1=O)C2=O [geldanamycin]	147	86.1
C[C@H](Cc1cc2c(c(C(N)=O)c1)N(CCCO)CC2)NCCOc1ccccc1OCC(F)(F)F [Silodosin(Rapaflo)]	135	15.9
COc1cc2ncnc(Nc3cccc(Cl)c3)c2cc1OC [ag-1478-tyrphostin-ag-1478]	169	48.1
CN1CCc2c(c3ccccc3n2Cc2ccc(C(=O)NO)cc2)C1 [tubastatin-a]	108	0.986
O=C1NC(=O)/C(=C/c2cccc(C(F)(F)F)c2)S1	187	25.9
C#CCN[C@@H]1CCc2ccccc21 [rasagiline-mesylate]	131	-21.2
Nc1cc(C(F)(F)F)c(-c2cc(N3CCOCC3)nc(N3CCOCC3)n2)cn1	70.3	29.2
COc1cc(Br)c(Nc2nc(-c3c(C)nc4ncccn34)cs2)c(Br)c1	137	20.6
O=S(=O)(c1cccc2cnccc12)N1CCCNCC1 [Fasudil-HCl(HA-1077)]	128	2.11
Cc1ccc(S(=O)(=O)OCC(=O)Nc2ccc(C(=O)O)c(O)c2)cc1	141	-12.9
C[C@@H]1COC(Nc2ccc3ncnc(Nc4ccc(OCc5nccs5)c(Cl)c4)c3c2)=N1	163	23.9
COc1cc(-c2ncn(/C=C\C(=O)OC(C)C)n2)cc(C(F)(F)F)c1	105	1.21
O=C(Nc1cccc(C(F)(F)F)c1)Nc1cc(S(=O)(=O)NC2CC2)ccc1-c1ccsc1	153	42.6
CCCC(=O)OCOC(=O)C1=C(C)NC(C)=C(C(=O)OC)C1c1cccc(Cl)c1Cl (configuration not stated) [cleviprex-clevidipine]	116	-12.7
CCC(=O)NCC[C@@H]1CCc2ccc3c(c21)CCO3 [Ramelteon]	137	2.43
COc1ccc(NS(=O)(=O)c2sc3ccc(Cl)cc3c2C)cc1N1CCNCC1	148	38.5
CCCC(=O)Nc1ccc(OCC(O)CNC(C)C)c(C(C)=O)c1 (configuration not stated) [acebutolol-hcl]	113	-1.23
COC(=O)N[C@H](C(=O)N1CCC[C@H]1c1ncc(-c2ccc(-c3ccc(-c4cnc([C@@H]5CCCN5C(=O)[C@@H](NC(=O)OC)C(C)C)[nH]4)cc3)cc2)[nH]1)C(C)C	96.5	32.9

3 structures out of the list, arranged by molecular weight, low to high.
Compound	normalized SmoIP GFP fluorescence [1] [%]	normalized SmoIP GFP fluorescence [2] [%]
C#CCN[C@@H]1CCc2ccccc21 [rasagiline-mesylate]	131	-21.2
O=C1NC(=O)/C(=C/c2ccc(-c3ccc(F)cc3O)o2)S1	135	13.2
O=C(O)CC[C@H]1CC[C@@](c2cc(F)ccc2F)(S(=O)(=O)c2ccc(Cl)cc2)CC1	151	15.4
